Test results taken from PubChem BioAssay AID2685 (National Center for Advancing Translational Sciences (NCATS), 2010).
This is one part of the list. Shown are side measurements of this screen, not its main read-out; they come without a call. Most of these compounds were active or inconclusive in the main read-out, so they are no random draw. The note in brackets gives the kind of curve behind each potency; many fits are weak.

Assay: qHTS Assay for Lipid Storage Modulators in Drosophila S3 Cells;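 on cell number change: cells counted by Cell Tracker Red CMTPX staining in the red channel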
Conditions: BODIPY lipid droplet fluorescence, 18-24 h; for cell number change: measured here: cell count max response, cells fed with added oleic acid
Summary of the method: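 Drosophila S3 cells got compounds at several concentrations plus oleic acid (400 uM solution). Laser-scanning cytometry with 488 nm excitation read lipid droplets at 500-530 nm and cells at 575-640 nm. Percent activity was relative to 20 uM Triacsin C.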

[1] = measured here: cell number channel AC50, cells fed with added oleic acid
[2] = measured here: lipid fluorescence (Fed channel) AC50, cells fed with added oleic acid

| SMILES | cell number change [%] | AC50 [1] | AC50 [2] |
| --- | --- | --- | --- |
| Nc1ccc(C(=O)N2CCCC2)cc1CS(=O)(=O)c1ccc(Cl)cc1 | 52.1 | 5.17 µM [rising, full curve] | 5.17 µM [rising, full curve] |
| O=C(NC(=S)Nc1ccc(F)c(Cl)c1)C1CC1 | -10.1 | – | 2.91 µM [rising, single point] |
| CCOc1ccc(CCNC(=O)COC(=O)COc2ccc(Br)cc2)cc1OCC | – | – | 16.4 µM [rising, partial curve] |
| CCOc1ccc(S(=O)(=O)N/N=C\c2ccc3c(c2)OCO3)cc1 | 13.8 | 1.64 µM [rising, partial curve] | 3.26 µM [rising, single point] |
| O=C(CN1CCOCC1)Nc1ccccc1Sc1ccc(Cl)cc1 | -55.3 | 18.4 µM [falling, single point] | 23.1 µM [falling, single point] |
| Cc1ccc(C)c(S(=O)(=O)NCCCc2ccccc2)c1 | 34.8 | – | 29.1 µM [rising, single point] |
| COc1nonc1NC(=O)CSc1nc2ccccc2[nH]1 | -13.2 | – | 6.51 µM [falling, single point] |
| NC(=O)CC(NC(=O)c1cccc(Br)c1)c1ccc(NC2CCN(Cc3ccccc3)CC2)c([N+](=O)[O-])c1 (configuration not stated) | 18 | – | – |
| Cc1ccc(C(=O)N/C(=C/c2ccc(-c3cccc([N+](=O)[O-])c3)o2)C(=O)NC(C)(C)C)cc1 | -3.17 | – | 32.6 µM [falling, partial curve, poor fit] |
| CC[C@H](C)C(N)c1cn(C(CCCN=C(N)N)C(=O)N2CCNCC2)nn1 (some centres not stated) | – | – | 0.00461 µM [rising, full curve, poor fit] |
| Cc1ccc(C(c2nnnn2C2CCCC2)N2CCc3ccccc32)cc1 (configuration not stated) | -25.7 | – | 7.31 µM [falling, partial curve] |
| CCOc1ccccc1NC(=O)c1cccc2ccccc12 | 10.3 | – | 0.116 µM [rising, full curve, poor fit] |
| COc1ccc(CNC(=O)c2ccc[nH]2)cc1Cl | 12.7 | – | 0.116 µM [rising, full curve, poor fit] |
| COc1cc(NC(=S)N2CCC(C(N)=O)CC2)c(OC)cc1Cl | 9.87 | – | 1.16 µM [falling, single point] |
| Cc1ccc(NC(=S)N2CCN(S(=O)(=O)c3ccc(F)cc3)CC2)cc1 | – | – | 29.1 µM [rising, single point] |
| CCc1csc(CNC(=O)C2CCC(=O)N(Cc3cccc(F)c3)C2)n1 (configuration not stated) | 5.57 | – | 29.1 µM [rising, single point] |
| Cc1nc2cc(-c3ccc(Cl)cc3)nn2c(NCCN(C)C)c1C | -39.2 | – | – |
| CCOc1cc(N2CCOCC2)c(OCC)cc1NC(=O)COc1ccccc1[N+](=O)[O-] | -0.543 | – | – |
| O=C(CN1CCN(S(=O)(=O)c2ccccc2)CC1)Nc1ccc2c(c1)CCC2 | 19 | 4.11 µM [rising, full curve, poor fit] | – |
| CCOC(=O)C1CCN(c2c(NCCN(CC)c3ccccc3)c(=O)c2=O)CC1 | 20 | – | 7.31 µM [rising, partial curve] |
| CC(C)(C)c1ccc(C(=O)N2CCC(C(=O)NC3CCCCCC3)CC2)cc1 | -11.8 | – | – |

| SMILES | cell number change [%] | AC50 [1] | AC50 [2] |
| --- | --- | --- | --- |
| O=C(NC(=S)Nc1ccccc1N1CCCC1)c1ccc([N+](=O)[O-])cc1 | -13.1 | – | 23.1 µM [falling, single point] |
| COc1ccc(C(=O)N2CCCC(Nc3ccc(C)c(C)c3)C2)cc1 (configuration not stated) | 15.9 | – | 3.26 µM [rising, partial curve, poor fit] |
| Fc1ccc(C(c2nnnn2C2CCCC2)N2CCN(Cc3ccncc3)CC2)cc1 (configuration not stated) | 14.9 | 2.06 µM [rising, partial curve] | 1.84 µM [rising, partial curve] |
| Cc1ccc(-n2nc3cc(C)c(N)cc3n2)cc1 | 28.5 | – | 2.31 µM [rising, partial curve] |
| O=C(c1ccccc1F)N1CCCc2ccccc21 | -2.49 | – | 0.58 µM [falling, single point] |
| O=C(NCCOc1ccccc1)c1ccccc1NC(=O)C1CCCO1 (configuration not stated) | -1.32 | – | 6.51 µM [rising, single point] |
| COC(=O)c1ccccc1NC(=O)c1ccc(COc2ccccc2)o1 | 116 | 18.4 µM [rising, partial curve] | 9.2 µM [rising, partial curve] |
| COc1ccccc1CC(=O)N1CCCC(CCC(=O)NCc2ccccc2F)C1 (configuration not stated) | -28.3 | – | 16.4 µM [falling, single point] |
| COc1cccc(NC(=O)N2CCCC2)c1 | -55.4 | – | – |
| CC(C)NC(=O)C(=O)N/N=C/c1ccco1 | -90.2 | 4.11 µM [falling, full curve] | 4.61 µM [falling, full curve] |
| Cc1ccc(NC2=NCC(Cc3ccc(Br)cc3)S2)cc1 (configuration not stated) | -60.9 | 16.4 µM [falling, single point] | 16.4 µM [falling, single point] |
| CCCc1nc2ccccc2c(=O)n1N | – | 0.731 µM [rising, single point] | – |
| O=C(N/N=C\c1ccncc1)c1ccccc1O | -31.4 | 16.4 µM [falling, single point] | 16.4 µM [falling, single point] |
| CCOc1ccc(C(=O)NC2CCN(C(=O)NCc3ccccc3)CC2)cc1 | -4.82 | 0.731 µM [rising, full curve, poor fit] | – |
| CCCCn1c(N)c(N(CC(C)C)C(=O)c2ccc(C)c(S(=O)(=O)N3CCCCC3)c2)c(=O)[nH]c1=O | -25 | 0.184 µM [falling, full curve, poor fit] | – |
| CC1(c2ccc3c(c2)OCO3)NC(=O)N(CC(=O)c2ccc[nH]2)C1=O (configuration not stated) | 24.5 | – | – |
| CNCCCC12CCC(c3ccccc31)c1ccccc12 | – | 13 µM [rising, partial curve, poor fit] | 29.1 µM [rising, single point] |
| COc1ccc(CCNC(=S)N2CCN(S(=O)(=O)c3ccccc3F)CC2)cc1 | – | – | 20.6 µM [falling, single point] |
| Cc1ccccc1CC(=O)Nc1ccc2c(c1)CCC2 | 43.3 | 32.6 µM [rising, single point] | – |
| C[C@H](NC(=O)c1nc[nH]c1C(=O)NCC(=O)OC(C)(C)C)c1ccccc1 | 17.7 | – | 2.06 µM [rising, partial curve] |
| CC(=O)c1cccc(NC(=S)NC(=O)c2ccccc2Br)c1 | -26 | – | 0.517 µM [falling, single point] |

| SMILES | cell number change [%] | AC50 [1] | AC50 [2] |
| --- | --- | --- | --- |
| COc1ccc([C@H]2CC(=O)C=C(c3cccc(Cl)c3)C2)cc1OC | -49.7 | 5.8 µM [falling, partial curve] | 6.51 µM [falling, partial curve] |
| CCOC(=O)c1c(NC(=O)C2C3C=CC(C3)C2C(=O)O)sc2c1CC(C)CC2 (configuration not stated) | 2.87 | – | 0.291 µM [falling, partial curve, poor fit] |
| Cc1cc([N+](=O)[O-])cc2c1-c1ncccc1C2=Nc1ccccc1 | -0.845 | – | – |
| CCOC(=O)/C(=N\Nc1ccccc1Cl)N(C)C1CCS(=O)(=O)C1 (configuration not stated) | -25.1 | – | 1.03 µM [falling, full curve] |
| Cn1c(SCc2ccccc2)nnc1-c1cnccn1 | 32.1 | 5.17 µM [rising, full curve, poor fit] | 0.206 µM [falling, full curve, poor fit] |
| COc1ccc(C(C)(C)C)cc1NC(=O)c1ccc2ncsc2c1 | 26.5 | – | 0.146 µM [falling, full curve, poor fit] |
| O=C(COc1ccccc1Br)NC1CCCC1 | -14.6 | – | – |
| O=C(C1CCC(=O)N(C2CCCC2)C1)N1CCC(Oc2cccc(F)c2)CC1 (configuration not stated) | – | – | 0.092 µM [falling, full curve, poor fit] |
| COc1ccc(N2CCN(CC(O)COC(C)(C)C)CC2)cc1 (configuration not stated) | -17.3 | – | – |
| Cc1ccc(NC(=O)N2N=C(c3ccc(F)cc3)CC2c2ccc(F)cc2)cc1 (configuration not stated) | -8.28 | – | 1.84 µM [rising, partial curve] |
| CSCCC1NC(=S)N(Cc2ccccc2)C1=O (configuration not stated) | -35.5 | 32.6 µM [falling, single point] | 29.1 µM [falling, single point] |
| O=c1[nH]n(-c2ccc(Cl)cc2)c(=O)c(Cl)c1Cl | -4.37 | – | 0.116 µM [falling, full curve] |
| Cn1c(O)c(N=NC(=O)c2ccccc2O)c2ccccc21 | -27.9 | – | 18.4 µM [falling, partial curve] |
| CN(C(=O)C1CCCN(c2ncnc3c2nc2n3CCCCC2)C1)c1cccc(Cl)c1 (configuration not stated) | -14.2 | – | 29.1 µM [falling, single point] |
| N/C(=N\OC(=O)/C=C/c1ccccc1)c1ccc(Cl)cc1 | -43.7 | 16.4 µM [falling, single point] | 16.4 µM [falling, single point] |
| COCCCNC(=O)c1ccc2nc(Cc3ccc(OC)cc3)oc2c1 | 16.6 | – | – |
| NC(=O)Cn1nnc(-c2ccc(NC(=O)c3ccc(F)cc3)cc2)n1 | 16.9 | – | – |
| CCOC(=O)c1cc(C)nn1-c1nc(Cl)cc(OC)n1 | 22.1 | – | 1.46 µM [rising, full curve, poor fit] |
| CC(C(=O)NCC(=O)Nc1ccc(F)c(F)c1F)N1CCN(Cc2ccc(C#N)cc2)CC1 (configuration not stated) | 12 | – | – |
| CCCCCCSc1ccc(-c2nc3ccc(C)cn3c2NCc2ccccc2)cc1OC | – | – | 29.1 µM [falling, partial curve, poor fit] |

3 entries from above, with tabs:
SMILES	cell number change [%]	AC50 [1]	AC50 [2]
O=C(COc1ccccc1Br)NC1CCCC1	-14.6	–	–
O=C(C1CCC(=O)N(C2CCCC2)C1)N1CCC(Oc2cccc(F)c2)CC1 (configuration not stated)	–	–	0.092 µM [falling, full curve, poor fit]
COc1ccc(N2CCN(CC(O)COC(C)(C)C)CC2)cc1 (configuration not stated)	-17.3	–	–
